# From PubChem BioAssay AID624297 (National Center for Advancing Translational Sciences (NCATS), 2012)
# In all, about 340,000 compounds went through this assay and about 6,200 (1.8%) were called active. Inconclusive results, whose numbers are uncertain, are shown with a selection of clear calls. The call rests on the fitted dose curve; in most records, active means well fitted activation curve with a large enough effect; inconclusive means small, poorly fitted or top-dose-only effect; inactive means no such curve, though single readings can be large or run the other way. Where the call is inconclusive, the potency comes from a doubtful curve fit.
# Assay: A quantitative high throughput screen for small molecules that induce DNA re-replication in SW480 colon adenocarcinoma cells. Further: nearly all actives have a fitted effect of over 55% in size. On re-replication activation: % of control where 0% means no effect.
# Conditions: Hoechst DNA content imaging, 48 h; re-replication activation: at 46.1 µM (top of the series) unless noted
# Description: H Molecular Libraries Probe Production Network [MLPCN] NIH Chemical Genomics Center [NCGC] MLPCN Grant: Fast Track K99 CA136555 Assay Provider: Melvin DePamphilis, NICHD, NIH Assay Overview Eukaryotic cells normally restrict genome duplication to once per cell division. When this process is aberrant, DNA re-replication occurs when cells reinitiate DNA replication before the first round of replication is complete. DNA re-replication induces the DNA damage response, arrests cell proliferation, and triggers apoptosis. The cell cycle components cyclin A, Cdt-1, Cdc6 and geminin are critical regulators of this process and their misregulation results in DNA re-replication in normal and cancer cells. To identify compounds that induce re-replication in normal cells, an image-based assay was used to measure DNA content of nuclei, as detected by the fluorescent DNA binding dye, Hoechst. Cell nuclei were imaged by a fluorescence scanning plate imager and compounds that induce DNA re-replication were identified by the increase of nuclei with elevated fluorescence intensity
# For screening, 250 cells in 5 uL/well were dispensed into black clear 1536-well plates (Aurora) using a solenoid-based dispenser. Following transfer of 23 nL compound or DMSO vehicle by a pin tool, the plates were incubated 48 hr at 37 C and 5% CO2. After addition of 1 uL/well Hoescht stain, the plates were incubated 40 min at 37 C, 5% CO2 and total intensity of fluorescent objects (nuclei) were enumerated by an Acumen Explorer Ex3 (TTP LabTech) fluorescence scanning plate imager (405 nm excitation, 500-530 nm emission). Keywords: NIH Roadmap, MLPCN, MLI, MLSMR, qHTS, NCGC, DNA replication, cancer
# Potency means the concentration at half of the fitted maximal effect.
Structure (SMILES),Potency,re-replication activation
O=C(O)c1cc([N+](=O)[O-])ccc1NCCCc1ccccc1,"inconclusive: 0.0058 µM [activator, full curve, poor fit]",
COc1cccc(NC(=O)C2CCCN(c3ncnc4c3nc3n4CCCCC3)C2)c1 (configuration not stated),"inconclusive: 4.47 µM [activator, single point]",
COc1ccc(S(=O)(=O)N2CCN(C)CC2)cc1,"inconclusive: 0.116 µM [activator, full curve, poor fit]",
CCOC(=O)c1c(N)sc2c1CCCC2=O,"inconclusive: 29.1 µM [activator, single point]",
Cc1nn(CC(=O)Nc2ccc3c(c2)nc(CCN2CCCCC2)n3C)c(=O)c2ccccc12,"inconclusive: 29.1 µM [activator, single point]",
CC(=O)NC12CC3CC(C1)CC(C(=O)Oc1ccc(N(C)S(=O)(=O)c4cc(C)ccc4C)cc1)(C3)C2,,inactive: -60.5%
CCn1c(SCC(=O)O)nnc1-c1cccnc1,"inconclusive: 2.59 µM [activator, single point]",
N#Cc1cccc(NC(=O)C2SC(=Nc3ccccc3)C(C(=O)N3CCOCC3)=C2N)c1 (configuration not stated),,inactive: -0.103%
Cc1ccc(C)c(-c2csc(NC(=O)c3c(C)noc3C)n2)c1,"inconclusive: 0.411 µM [activator, full curve, poor fit]",
Cc1ncc(CO)c(/C=N/NC(=S)Nc2cccc(Cl)c2)c1O,,inactive: 16.2%
CCN1CCN(c2cc(C)c3cc(NC(=O)c4cncc(Br)c4)ccc3n2)CC1,"inconclusive: 35.5 µM [activator, single point]",
COC(=O)c1ccc2c(c1)N(Cc1cc(C)ccc1C)C(=O)c1ccccc1S2=O (configuration not stated),"inconclusive: 3.66 µM [activator, partial curve, poor fit]",
Cc1ccc(NC(=O)CN2CCCC2c2cccs2)cc1S(=O)(=O)N1CCCCC1 (configuration not stated),,inactive: -1.25%
O=C(c1ccc(NC2=NC3CS(=O)(=O)CC3S2)cc1)N1CCN(c2ccc([N+](=O)[O-])cc2)CC1 (configuration not stated),,inactive: -9.92%
c1coc(CN(Cc2ccco2)c2ncnc3c2oc2ccccc23)c1,"inconclusive: 32.6 µM [activator, single point]",
O=C(CNc1cccc(F)c1)N1CCc2ccccc2C1,"inconclusive: 6.51 µM [activator, single point]",
CC(C)n1cc(NC(=O)C2CC(c3cccc(Br)c3)=NO2)cn1 (configuration not stated),"inconclusive: 6.51 µM [activator, single point]",
Cc1cc(C(=O)N/N=C/c2ccc(N(C)C)o2)cs1,"inconclusive: 29.1 µM [activator, single point]",
O=S(=O)(c1ccccc1)N1N=C(c2ccc(Br)cc2)CC1c1ccco1 (configuration not stated),"inconclusive: 23.1 µM [activator, single point]",
O=C(Nc1cccc(Cl)c1N1CCCC1)c1ccc([N+](=O)[O-])o1,"inconclusive: 23.1 µM [activator, single point]",
Cc1cccc(-c2nc(CN3CCCC(C(=O)NC4CCC(C)CC4)C3)c(C)o2)c1 (configuration not stated),"inconclusive: 16.4 µM [activator, partial curve]",
CCCCOc1ccc(/C(O)=C2/C(=O)C(=O)N(Cc3cccnc3)C2c2ccncc2)c(C)c1 (configuration not stated),"inconclusive: 29.1 µM [activator, single point]",
COc1ccc(NC(=O)N2CCCC(c3nc(-c4ccc(F)cc4)no3)C2)cc1 (configuration not stated),"inconclusive: 29.1 µM [activator, partial curve, poor fit]",

# Entries of single compounds from above.
# Cc1ccc(NC(=O)CN2CCCC2c2cccs2)cc1S(=O)(=O)N1CCCCC1 (configuration not stated) reads re-replication activation: inactive: -1.25%
# Cc1cccc(-c2nc(CN3CCCC(C(=O)NC4CCC(C)CC4)C3)c(C)o2)c1 (configuration not stated) reads Potency: inconclusive: 16.4 µM [activator, partial curve]

# Remaining list, next part

Structure (SMILES),Potency,re-replication activation
Cc1ccc(S(=O)(=O)N2CCN(CC(O)CN3CCOCC3)CC2)cc1 (configuration not stated),"inconclusive: 25.9 µM [activator, single point]",
CC(C)CC[n+]1ccn(C2=C([O-])c3ccccc3C(=O)/C2=N\S(=O)(=O)c2ccccc2)c1,"inconclusive: 18.4 µM [activator, partial curve, poor fit]",
Cc1cc(C)c2cc(C(=O)N3CCN(c4ncccc4C(F)(F)F)CC3)[nH]c2c1,"inconclusive: 23.1 µM [activator, single point]",
c1coc(CSSCc2ccco2)c1,"inconclusive: 29.1 µM [activator, single point]",
CNC(=O)c1[nH]cnc1C(=O)Nc1cccc(OC)c1,,inactive: -6.51%
CCc1nc(N2CCN(C(=O)CCl)CC2)c2c3c(sc2n1)CC(C)CC3 (configuration not stated),"inconclusive: 0.366 µM [activator, partial curve, poor fit]",
CCOc1ccc(NC(=O)CSc2nc3[nH]ncc3c(=O)n2-c2ccccc2OC)cc1,,inactive: -6.02%
COC(=O)C1=C(N)Oc2cc(C)n(CCCn3ccnc3)c(=O)c2C1c1cccc(Cl)c1 (configuration not stated),"inconclusive: 6.51 µM [activator, single point]",
CSc1cccc(NC(=O)Cc2ccccc2[N+](=O)[O-])c1,"inconclusive: 13 µM [activator, single point]",
O=C(CCl)NCc1cc(-c2ccc(Cl)cc2)no1,"inconclusive: 10.3 µM [activator, partial curve]",
CN(/N=C/c1cc(Br)cc(Br)c1O)c1cccc(C(F)(F)F)n1,"inconclusive: 23.1 µM [activator, single point]",
Cc1cc(C)cc(Nc2nc3ccccc3c(=O)[nH]2)c1,"inconclusive: 20.6 µM [activator, single point]",
O=C(NCCc1c[nH]c2ccccc12)Nc1ccccc1,,inactive: -17.4%
CCCCn1c(NC(=O)c2ccc(Br)o2)c(S(=O)(=O)c2ccccc2)c2nc3ccccc3nc21,"inconclusive: 31.6 µM [activator, single point]",
CNS(=O)(=O)c1ccc(NC(=O)Nc2ccc3c(c2)OCO3)cc1,"inconclusive: 20.6 µM [activator, single point]",
CCOCCn1ccc2c(OCC(=O)Nc3cc(OC)ccc3OC)cccc2c1=O,"inconclusive: 20.6 µM [activator, single point]",
Cc1ccc(NC(=O)CCC(=O)c2cccs2)c(Br)c1,,inactive: -2.78%
Cc1cccc(-c2nc(CS(=O)CC(=O)NC3CCCC(C)C3C)c(C)o2)c1 (configuration not stated),,inactive: -5.8%
CCCCNC(=S)NNC(=O)c1csc(C)c1,"inconclusive: 5.17 µM [activator, full curve, poor fit]",
S=C1NCCc2ccc(Cl)cc2C1c1ccccc1Cl (configuration not stated),,inactive: 0.293%
Oc1ccccc1C1=NN(c2ccccc2)C(c2ccccc2)C1 (configuration not stated),active: 8.2 µM,
Cc1cc(Cl)ccc1C(=O)C1CCCN(C(=O)c2cnn(C(C)C)c2)C1 (configuration not stated),"inconclusive: 1.46 µM [activator, partial curve, poor fit]",
Cn1ncc(Cl)c1C(=O)N1CCN(C23CC4CC(CC(C4)C2)C3)CC1,"inconclusive: 32.6 µM [activator, partial curve, poor fit]",

# Random excerpt: 2 entries already listed
Structure (SMILES),Potency,re-replication activation
CCCCn1c(NC(=O)c2ccc(Br)o2)c(S(=O)(=O)c2ccccc2)c2nc3ccccc3nc21,"inconclusive: 31.6 µM [activator, single point]",
Oc1ccccc1C1=NN(c2ccccc2)C(c2ccccc2)C1 (configuration not stated),active: 8.2 µM,

# (more compounds)

Structure (SMILES),Potency,re-replication activation
CCCn1cnc2c(SCc3ccccc3)nc(N)nc21,,inactive: -5.83%
CCOC(=O)c1c(NC(=O)/C=C\C(=O)O)sc(C)c1-c1ccccc1,"inconclusive: 16.4 µM [activator, partial curve, poor fit]",
CC1CCN(c2nc3c(c(=O)n(C)c(=O)n3C)n2Cc2ccccc2)CC1,"inconclusive: 16.4 µM [activator, partial curve, poor fit]",
COc1ccc(C2/C(=C(/O)c3ccc(F)cc3)C(=O)C(=O)N2c2ccccn2)cc1OC (configuration not stated),"inconclusive: 29.1 µM [activator, single point]",
CC(C)C[C@@H](CNC(=O)OC(C)(C)C)NC(=O)c1nc[nH]c1C(=O)N[C@@H](CC(C)C)C(=O)CNC[C@H](CC(C)C)NC(=O)c1nc[nH]c1C(=O)N[C@@H](Cc1c[nH]c2ccccc12)C(=O)OC(C)(C)C,,inactive: 1.93%
COc1ccccc1Nc1nc(NCc2ccco2)c2ccccc2n1,,inactive: -24.5%
O=C(OCn1ncc(Cl)c(Cl)c1=O)c1ccccc1Cl,active: 7.31 µM,
COCCNCCCOc1ccc(C(C)(C)c2ccccc2)cc1,,inactive: 2.02%
Cc1ccc2cc(C)c(Sc3nnnn3-c3ccccc3)nc2c1,"inconclusive: 32.6 µM [activator, single point]",
Cc1nc2ccc(NC(=O)c3ccc(C)c(S(=O)(=O)N4CCOCC4)c3)cc2s1,,inactive: 0.941%
COC(=O)c1ccc(NC(=O)c2cn(-c3ccccc3)nc2-c2ccncc2)cc1,"inconclusive: 4.11 µM [activator, full curve]",
CC1CCN(C(=O)C2CCN(S(=O)(=O)c3cccc4nonc34)CC2)CC1,"inconclusive: 16.4 µM [activator, single point]",
O=C(O)/C=C/c1ccccc1Oc1ccc(Cl)cc1Cl,"inconclusive: 4.11 µM [activator, single point]",
CCc1c(C)nc2ncnn2c1N1CCC(C(=O)Nc2ccc(C)cc2)CC1,,inactive: 4.99%
CN1CCN(c2nc3c(c(=O)n(C)c(=O)n3C)n2CC(N)=O)CC1,"inconclusive: 32.6 µM [activator, partial curve, poor fit]",
CN(C)S(=O)(=O)c1ccc(N2CCN(S(=O)(=O)c3ccc(F)cc3)CC2)c(Cl)c1,,inactive: -3.13%
COc1ccccc1OCC(=O)/C=C1/N(C)c2ccccc2C1(C)C,,inactive: -1.94%
COc1cccc(CNc2nc(C(F)(F)F)nc3ccccc23)c1,,inactive: 33.5%
Cc1cc(C)c2cc(C(=O)N3CCc4ccccc4C3)[nH]c2c1,"inconclusive: 32.6 µM [activator, partial curve, poor fit]",
COc1cc(Cl)c(C)cc1NC(=O)CCN1C(=O)NC(C)(C)C1=O,"inconclusive: 5.8 µM [activator, single point]",
CC(CNC(=O)CCc1ccccc1)NC(=O)CCc1ccccc1 (configuration not stated),"inconclusive: 18.4 µM [activator, single point]",
